No end group written: not given here.
Assay: general procedure: Fmoc solid-phase peptide synthesis; Rink amide resin (0.4 mmol/g); Rink amide MBHA resin; HCTU/NMM
Conditions: whole synthesis, scale of the general procedure 0.1 mmol; for final HPLC purity: Vydac analytical C18 RP-HPLC
[1] = one disulfide bridge, sequence written open

Substance	final HPLC purity [%]	isolated yield [%]	final HPLC purity [1] [%]	isolated yield [1] [%]
LGRLSQELHRLQTYPRTYPRTNTGSNTY-NH2	98.6	55	–	–
HAIYPRH-(NH2)	98	70	–	–
CLGRLSQELHRLQTYPRTYPRTNTGSNTYC-NH2 (cysteine pairing not given here)	–	–	97.5	40
